# From PubChem BioAssay (NCATS)
# Sequences of proteins named here, by UniProt entry; tags and fusion partners are left off. A change or cut given only in a name is not applied to a line headed by its entry.
# UniProt Q8WZA2: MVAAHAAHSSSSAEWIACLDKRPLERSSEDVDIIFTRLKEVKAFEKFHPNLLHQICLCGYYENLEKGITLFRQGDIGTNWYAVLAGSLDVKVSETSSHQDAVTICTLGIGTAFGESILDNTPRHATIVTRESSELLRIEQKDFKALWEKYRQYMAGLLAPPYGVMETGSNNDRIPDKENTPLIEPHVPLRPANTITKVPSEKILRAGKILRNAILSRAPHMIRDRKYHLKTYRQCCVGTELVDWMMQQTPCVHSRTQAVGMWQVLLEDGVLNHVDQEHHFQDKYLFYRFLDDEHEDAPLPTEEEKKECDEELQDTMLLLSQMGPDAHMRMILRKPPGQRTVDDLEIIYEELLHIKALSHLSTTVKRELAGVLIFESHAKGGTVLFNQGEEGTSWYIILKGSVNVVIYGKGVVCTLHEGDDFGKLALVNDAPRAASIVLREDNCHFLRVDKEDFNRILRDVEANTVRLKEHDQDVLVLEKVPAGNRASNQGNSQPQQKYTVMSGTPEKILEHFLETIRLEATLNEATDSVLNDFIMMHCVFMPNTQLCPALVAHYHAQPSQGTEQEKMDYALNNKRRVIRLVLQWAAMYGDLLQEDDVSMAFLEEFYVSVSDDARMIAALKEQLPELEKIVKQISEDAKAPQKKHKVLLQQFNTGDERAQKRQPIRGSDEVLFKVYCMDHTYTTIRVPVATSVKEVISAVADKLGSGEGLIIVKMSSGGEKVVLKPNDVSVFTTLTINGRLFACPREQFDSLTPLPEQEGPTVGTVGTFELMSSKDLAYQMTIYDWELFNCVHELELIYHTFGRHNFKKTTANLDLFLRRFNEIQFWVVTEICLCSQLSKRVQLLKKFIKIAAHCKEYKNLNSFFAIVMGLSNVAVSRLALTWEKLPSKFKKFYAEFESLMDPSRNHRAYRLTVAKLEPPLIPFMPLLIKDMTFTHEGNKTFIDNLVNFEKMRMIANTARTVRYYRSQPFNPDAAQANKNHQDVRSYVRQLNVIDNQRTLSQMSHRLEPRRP
# Inconclusive means that the source gave no clear call. Such entries were picked first, then a sample of the others. Potencies of inconclusive entries are doubtful fits and often do not repeat. Active and inactive are the calls of the source. Calls follow the shape of the dose curve; as a rule, active = well fitted curve in the direction sought with a large enough effect; inconclusive = small, poorly fitted or top-dose-only effect, or another doubt; inactive = no such curve, though single readings can be large; an effect the other way counts as inactive or inconclusive.
# Molecular target: Rap guanine nucleotide exchange factor 4 (Homo sapiens) (UniProt Q8WZA2)
# Test: Confirmatory qHTS for agonist of cAMP-regulated guanine nucleotide exchange factor 4 (EPAC2) (AID 1645884);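 also: nucleotide exchange releases bodipy-GDP from Rap1 and this lowers its fluorescence; nearly all actives have a fitted effect of over 65% in size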
# Details: EPAC2 GEF activity, Rap1B-BODIPY-GDP fluorescence; activation: at 154 µM (top of the series), percent relative to cAMP agonist control
# % is scaled to controls: 0 for no effect and ±100 for the full control effect; potency is read from the fitted curve at half-maximal effect.
SMILES,Potency,activation
Cc1nn(-c2ccccc2)c2nc(N)c(C#N)c(-c3ccc(O)c(O)c3)c12,"inconclusive: 100 µM [activator, partial curve, poor fit]",–
CCOC(=O)C1CCc2c(ccc3ccccc23)N1CCC#N (stereo not drawn),–,"inactive: 0.813% [at 17.1 µM, percent relative to cAMP agonist control]"
Cc1cccc(NC(=O)CNC(=O)CCc2nc3sc4c(c3c(=O)[nH]2)CCCC4)c1C,inactive,–
Clc1ccc(CSc2nnc(-c3ccccn3)n2Cc2ccco2)cc1Cl,"inconclusive: 63.1 µM [activator, partial curve, poor fit]",–
C[C@@H](NC(=O)C1(c2ccccc2)CCN(C(=O)OC(C)(C)C)CC1)C(=O)N[C@@H](C(=O)O)c1ccccc1,inactive,–
CCn1c(=O)c(C(=O)NNS(=O)(=O)c2ccc(C)cc2)c(O)c2ccccc21,"inconclusive: 50.1 µM [activator, partial curve, poor fit]",–
CC(=O)Nc1ccc(NC(=S)NC(=O)/C=C/c2ccco2)cc1,inactive,–
Cc1ccn2c(-c3csc(NCc4ccccc4)n3)c(C)nc2c1,"inconclusive: 0.0282 µM [activator, full curve, poor fit]",–
Cc1ccc(-c2nc3ccc(C)cn3c2Cc2cccc(F)c2)cc1,"inconclusive: 100 µM [activator, partial curve, poor fit]",–
Cc1cc(C(=O)N/N=C/c2ccc(O)c([N+](=O)[O-])c2)c(C)n1-c1ccc(F)cc1,inactive,–
Cc1ccc(C)c(Oc2nc3c(c(=O)n(C)c(=O)n3C)n2Cc2ccccc2)c1,"inconclusive: 44.7 µM [activator, single point]",–
COc1ccc(C(=O)Oc2ccc(/C=N/Nc3ccc(Cl)c(C(=O)O)c3)cc2OC)cc1,"inconclusive: 112 µM [activator, partial curve, poor fit]",–
COc1ccc(-n2cc(-c3ccccc3)c3c(N4CCOCC4)ncnc32)cc1,"inconclusive: 112 µM [activator, partial curve, poor fit]",–
Cc1ccccc1OCC(=O)Nc1ccccc1N1CCC(C)CC1,inactive,–
CCc1c(C2(O)CCCCC2)[nH]c2c(C(=O)OC)cc(Cl)cc12,inactive,–
Fc1cccc(Cc2c(-c3ccc(Cl)cc3)nc3ccc(Cl)cn23)c1,–,"inactive: 7.12% [at 17.1 µM, percent relative to cAMP agonist control]"
COC1=C/C(=C/c2c(N)n3nc(-c4ccc(C)cc4)sc3nc2=O)C=CC1=O,inactive,–
Cc1ccc2nc(-c3ccc(Cl)cc3)c(Cc3ccccc3C(F)(F)F)n2c1,–,"inactive: 10.6% [at 17.1 µM, percent relative to cAMP agonist control]"
Cc1cccc(Oc2ccccc2NC(=O)C2=COCCO2)c1,"inconclusive: 28.2 µM [activator, full curve, poor fit]",–
COC(=O)CN(c1nc(C)c(Br)c(OC)n1)S(=O)(=O)c1ccccc1,"inconclusive: 100 µM [activator, partial curve, poor fit]",–
CN1CCc2nc3sc(C(=O)C45CC6CC(CC(C6)C4)C5)c(N)c3cc2C1,active: 100 µM,–
CCOc1ccc(NC(=O)CN(C)C(=O)c2ccccc2SCc2c(C)noc2C)cc1OCC,–,"inactive: 1.53% [at 17.1 µM, percent relative to cAMP agonist control]"
O=C1Nc2ccccc2N=C(c2ccccc2)c2ccccc21,"inconclusive: 2 µM [activator, partial curve, poor fit]",–
COc1ccc(Cl)cc1N(C)C(=O)Cc1noc2ccc(C)cc12,inactive,–
CCCCn1nnnc1C(c1cc2ccccc2o1)N1CCN(c2cc(C)nc3ccccc23)CC1 (stereo not drawn),"inconclusive: 112 µM [activator, partial curve, poor fit]",–
COc1ccc(-c2ccc(CCC(=O)O)n2-c2ccc(Cl)cc2C)cc1,"inconclusive: 50.1 µM [activator, single point]",–
Cc1ccc(CNC(=O)c2c[nH]n3c(=O)c(Cc4ccc(Cl)cc4)c(C)nc23)cc1,inactive,–
O=C(Cc1c(Cl)cccc1Cl)Nc1ccc(S(=O)(=O)Nc2ncccn2)cc1,inactive,–

# Molecular target: Rap guanine nucleotide exchange factor 4 (Homo sapiens) (UniProt Q8WZA2)
# Test: Confirmatory qHTS for antagonist of cAMP-regulated guanine nucleotide exchange factor 4 (EPAC2) (AID 1645885); also: nearly all actives have a fitted effect of over 25% in size
# Details: EPAC2 Rap1B-BODIPY-GDP exchange fluorescence, biochemical; activity change, negative = inhibition: at 12.7 µM (top of the series) unless noted; series mostly up to 114 µM
SMILES,Potency,"activity change, negative = inhibition"
CCCNC(=O)c1ccc(N2CCC3(CC2)CC(c2ccccc2)=NO3)c(NC(=O)c2ccccc2)c1,"inconclusive: 3.01 µM [inhibitor, full curve, poor fit]",–
CCOC(=O)c1c(NC(=O)CSc2nnc(C)c(=O)[nH]2)sc(C)c1-c1ccc(C)cc1,"inconclusive: 19 µM [inhibitor, full curve]",–
COc1ccc(C2OCC3(COC(C)=O)C(C)C=C(C)C2C3C)cc1 (stereo not drawn),"inconclusive: 17.5 µM [inhibitor, partial curve]",–
CCN(CC)c1ccc2cc(-c3nc(-c4ccccc4)no3)c(=O)oc2c1,active: 6.01 µM,–
COc1ccc(C(=O)c2oc3ccc(OC)cc3c2N)cc1,"inconclusive: 60.1 µM [inhibitor, partial curve]",–
Cc1ccc(S(=O)(=O)NCc2ccccc2)cc1C(=O)N1CCCC(C(F)(F)F)C1 (stereo not drawn),"inconclusive: 37.9 µM [inhibitor, single point]",–
COc1ccc(NC(=O)COC(=O)CCCOc2ccc(Cl)cc2Cl)cc1Cl,active: 6.01 µM,–
C#Cc1ccc([C@H]2C=C(C(=O)NCc3ccccc3)O[C@@H](OCC)[C@@H]2CCCO)cc1,active: 37.9 µM,–
COc1ccc(C(=O)NCCn2cc(SCc3cccc(F)c3)c3ccccc32)cc1OC,inactive,–
O=C1CSC(=Nc2ccccc2)N1Cc1ccccc1,"inconclusive: 42.6 µM [inhibitor, partial curve]",–
Cc1cc2c(N)cccc2nn1,"inconclusive: 21.3 µM [inhibitor, single point]",–
CC(=O)Nc1ccc(S(=O)(=O)N2CCN(c3cc(C)ccc3C)CC2)cc1,"inconclusive: 47.8 µM [inhibitor, partial curve]",–
Cc1nn(-c2ccccc2)c2nc(N)c(C#N)c(-c3ccc(O)c(O)c3)c12,inactive,–
CCOC(=O)C1CCc2c(ccc3ccccc23)N1CCC#N (stereo not drawn),inactive,–
Cc1cccc(NC(=O)CNC(=O)CCc2nc3sc4c(c3c(=O)[nH]2)CCCC4)c1C,"inconclusive: 84.9 µM [inhibitor, single point]",–
Clc1ccc(CSc2nnc(-c3ccccn3)n2Cc2ccco2)cc1Cl,"inconclusive: 37.9 µM [inhibitor, partial curve, poor fit]",–
C[C@@H](NC(=O)C1(c2ccccc2)CCN(C(=O)OC(C)(C)C)CC1)C(=O)N[C@@H](C(=O)O)c1ccccc1,active: 42.6 µM,–
CCn1c(=O)c(C(=O)NNS(=O)(=O)c2ccc(C)cc2)c(O)c2ccccc21,"inconclusive: 67.5 µM [inhibitor, partial curve]",–
CC(=O)Nc1ccc(NC(=S)NC(=O)/C=C/c2ccco2)cc1,inactive,–
Cc1ccn2c(-c3csc(NCc4ccccc4)n3)c(C)nc2c1,"inconclusive: 0.601 µM [inhibitor, full curve, poor fit]",–

SMILES,Potency,"activity change, negative = inhibition"
Cc1ccc(-c2nc3ccc(C)cn3c2Cc2cccc(F)c2)cc1,inactive,–
Cc1cc(C(=O)N/N=C/c2ccc(O)c([N+](=O)[O-])c2)c(C)n1-c1ccc(F)cc1,"inconclusive: 95.3 µM [inhibitor, partial curve, poor fit]",–
Cc1ccc(C)c(Oc2nc3c(c(=O)n(C)c(=O)n3C)n2Cc2ccccc2)c1,inactive,–
COc1ccc(C(=O)Oc2ccc(/C=N/Nc3ccc(Cl)c(C(=O)O)c3)cc2OC)cc1,"inconclusive: 16.9 µM [inhibitor, full curve]",–
COc1ccc(-n2cc(-c3ccccc3)c3c(N4CCOCC4)ncnc32)cc1,"inconclusive: 84.9 µM [inhibitor, single point]",–
Cc1ccccc1OCC(=O)Nc1ccccc1N1CCC(C)CC1,active: 42.6 µM,–
CCc1c(C2(O)CCCCC2)[nH]c2c(C(=O)OC)cc(Cl)cc12,"inconclusive: 26.9 µM [inhibitor, full curve, poor fit]",–
Fc1cccc(Cc2c(-c3ccc(Cl)cc3)nc3ccc(Cl)cn23)c1,inactive,–
COC1=C/C(=C/c2c(N)n3nc(-c4ccc(C)cc4)sc3nc2=O)C=CC1=O,–,inconclusive: -41% [inhibitor] [at 114 µM]
Cc1ccc2nc(-c3ccc(Cl)cc3)c(Cc3ccccc3C(F)(F)F)n2c1,inactive,–
Cc1cccc(Oc2ccccc2NC(=O)C2=COCCO2)c1,"inconclusive: 95.3 µM [inhibitor, partial curve, poor fit]",–
COC(=O)CN(c1nc(C)c(Br)c(OC)n1)S(=O)(=O)c1ccccc1,"inconclusive: 75.7 µM [inhibitor, partial curve, poor fit]",–
CN1CCc2nc3sc(C(=O)C45CC6CC(CC(C6)C4)C5)c(N)c3cc2C1,"inconclusive: 37.9 µM [inhibitor, single point]",–
CCOc1ccc(NC(=O)CN(C)C(=O)c2ccccc2SCc2c(C)noc2C)cc1OCC,inactive,–
O=C1Nc2ccccc2N=C(c2ccccc2)c2ccccc21,"inconclusive: 1.51 µM [inhibitor, single point]",–
COc1ccc(Cl)cc1N(C)C(=O)Cc1noc2ccc(C)cc12,inactive,–
CCCCn1nnnc1C(c1cc2ccccc2o1)N1CCN(c2cc(C)nc3ccccc23)CC1 (stereo not drawn),"inconclusive: 15.1 µM [inhibitor, full curve]",–
COc1ccc(-c2ccc(CCC(=O)O)n2-c2ccc(Cl)cc2C)cc1,"inconclusive: 0.757 µM [inhibitor, partial curve, poor fit]",–
Cc1ccc(CNC(=O)c2c[nH]n3c(=O)c(Cc4ccc(Cl)cc4)c(C)nc23)cc1,inactive,–
O=C(Cc1c(Cl)cccc1Cl)Nc1ccc(S(=O)(=O)Nc2ncccn2)cc1,"inconclusive: 95.3 µM [inhibitor, single point]",–

# Four structures from above, arranged by count of non-hydrogen atoms, rising.
SMILES,Potency,"activity change, negative = inhibition"
CC(=O)Nc1ccc(NC(=S)NC(=O)/C=C/c2ccco2)cc1,inactive,–
CN1CCc2nc3sc(C(=O)C45CC6CC(CC(C6)C4)C5)c(N)c3cc2C1,"inconclusive: 37.9 µM [inhibitor, single point]",–
COc1ccc(-n2cc(-c3ccccc3)c3c(N4CCOCC4)ncnc32)cc1,"inconclusive: 84.9 µM [inhibitor, single point]",–
C#Cc1ccc([C@H]2C=C(C(=O)NCc3ccccc3)O[C@@H](OCC)[C@@H]2CCCO)cc1,active: 37.9 µM,–
